Measured values reported in PubChem BioAssay AID1347426 (Functional Genomics Laboratory (NCATS/FGL), 2020).
In all, about 31,000 sequences went through this assay and about 1,400 (4.5%) were called active.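 How the source made its calls: active means median seed-adjusted z-score above 1 or below -1; inactive means the rest.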 The list shows a part of the results.

Assay: Novel Modifiers of Survival Motor Neuron (SMN) Protein: Gene Identification via Genome-wide siRNA Screen;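 further: luminescence tracks full-length SMN protein made from the SMN2 reporter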
Conditions: HEK293T SMN2-luciferase reporter, siRNA knockdown, 72 h; actives lie on both sides
How it was run: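 HEK293T cells stably expressing an SMN2 splicing/cDNA-luciferase reporter were reverse-transfected with a druggable-genome siRNA library and read by luminescence at 72 hours; hits defined by MAD score above 1.0 or below -1.0.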
In the case of AGAUCUACAUUUCAACCCUTT against AKAP1, the median seed-adjusted z-score is reported as inactive: 0.182. For CAAGCUCCAUUUUGAAUCATT against SRR, the median seed-adjusted z-score was inactive: -0.256. For GAAGCUCCGAGUUCUCUUATT against ZXDC, the median seed-adjusted z-score was inactive: -0.0213. For GAACUAUACAUGCGAAGAATT against RDX, the median seed-adjusted z-score was inactive: 0.123. For GGUUUUAACUGCGAGAGUATT against FN1, the median seed-adjusted z-score was inactive: -0.312. For GGAUCAUCGAGUGCAAUGATT against GAMT, the median seed-adjusted z-score was inactive: -0.161. In the case of GGAAGGGUAUCAUUACAGATT against TPBG, the median seed-adjusted z-score is reported as inactive: -0.128. With GACUGGUGUUUAUCUAUGATT against PTPN9 the median seed-adjusted z-score was inactive: 0.148. For AGAUGGUAACCAUACUCUATT against COX6A1, the median seed-adjusted z-score was inactive: -0.0917. For GUUCAGACAUCAUAAGAGATT against RAD18, the median seed-adjusted z-score was inactive: 0.562. For AGUUUGUGAUAUCAUGAGATT against FRMPD2, the median seed-adjusted z-score was inactive: -0.329. With GUGCACUACUUACAGUUCATT against MAK10 the median seed-adjusted z-score was inactive: 0.124. For GCACGGUCAUGGUUCGAAUTT against PCDHB4, the median seed-adjusted z-score was inactive: 0.00998. With GUGGUUAACUUGGACCUCATT against PARVB the median seed-adjusted z-score was inactive: -0.0102. With CAGCUGUGCUAAUCGGCUATT against COL15A1 the median seed-adjusted z-score was inactive: 0.161. In the case of GGAAAGAGCUUUCACAGGATT against RCOR3, the median seed-adjusted z-score is reported as inactive: 0.0446. For GCACCUACUCCUAUCCCGATT against RFX1, the median seed-adjusted z-score was inactive: 0.818. For GUGCGAAGGUUUUUAAUCATT against ZNF816A, the median seed-adjusted z-score was inactive: 0.39. With GCCUGUCUCUCAUAAAGUATT against DDOST the median seed-adjusted z-score was inactive: -0.315. In the case of GGAACCUCUCAAGAGCUUATT against VPS72, the median seed-adjusted z-score is reported as inactive: 0.572. For GGAUGGAACCAAGAGAGCATT against CARD10, the median seed-adjusted z-score was inactive: -0.929. For GCAUCGUACUAUGAACAGUTT against CPB2, the median seed-adjusted z-score was inactive: -0.62. In the case of GCUUUGUAGUUUGCCCAGATT against TCAP, the median seed-adjusted z-score is reported as inactive: -0.177. For GCAUAUUCCGGUGAUAACUTT against RAB6C, the median seed-adjusted z-score was active: -1.08. In the case of GGAGCUGAUCAUCAACAAATT against SYMPK, the median seed-adjusted z-score is reported as inactive: 0.946. With GCACUGUACGCUACGGAGATT against KCNJ10 the median seed-adjusted z-score was inactive: -0.0371. With UGAGGAUAUUUAAAAUUCATT against CLDN6 the median seed-adjusted z-score was inactive: -0.281. In the case of GGAAAGAGCUUCUACGUGUTT against TTF2, the median seed-adjusted z-score is reported as inactive: 0.282. With AGAUGACAGAAGACAUGAATT against APOB48R the median seed-adjusted z-score was inactive: 0.386. For CGGCCUAACUUUCAAGACATT against SDK2, the median seed-adjusted z-score was inactive: 0.908. For CCUUCAAUAAUACCUCCAATT against ZNF691, the median seed-adjusted z-score was inactive: 0.28. For GCUUAGUCGAAUACGGAGATT against CHL1, the median seed-adjusted z-score was inactive: 0.1. In the case of GGUUUAAGCCGAAAGCACATT against KCNAB3, the median seed-adjusted z-score is reported as inactive: 0.0697. For GCAUUGCCGAGAUCCAUGATT against PIK3R2, the median seed-adjusted z-score was inactive: 0.421. In the case of GCUGCCGACUAAGCAUUGATT against PAX8, the median seed-adjusted z-score is reported as inactive: 0. In the case of GAUCUUAGCUGGACGAGAATT against STOML3, the median seed-adjusted z-score is reported as inactive: -0.0711. With GGAUGAAGAGAUACCUUUUTT against ZNF772 the median seed-adjusted z-score was inactive: 0.817. With CGCAUCAUCUCAACAAUCATT against KCNK2 the median seed-adjusted z-score was inactive: 0.257. With GACCGGCAUUGAUCAAUCATT against MYO1B the median seed-adjusted z-score was inactive: 0.903. For GGAUAAAUAUGCAUUGGAATT against PTPN21, the median seed-adjusted z-score was inactive: 0. For GGAGAGUGUUUGAUAUGUUTT against EIF4A2, the median seed-adjusted z-score was inactive: 0. For GGAUGGAGACAACGACAAATT against ANGPT2, the median seed-adjusted z-score was inactive: -0.163. For GGACAUACGCAGCACCAUATT against ZMAT1, the median seed-adjusted z-score was inactive: -0.123. In the case of CGGGAUUUAUAGGCAAUGATT against RNASEH1, the median seed-adjusted z-score is reported as inactive: -0.0205. In the case of CAGGUGAUCUGGACCAAGATT against LCP1, the median seed-adjusted z-score is reported as inactive: -0.386. With AGUGCAACGUGUUCGUCUATT against PPP2R2D the median seed-adjusted z-score was inactive: -0.118. For CAUUCGGCCUCUACCCAAATT against DNAJC13, the median seed-adjusted z-score was inactive: -0.12. With CUCUCUACACGACUACAAATT against JUNB the median seed-adjusted z-score was inactive: -0.224. For GGAUAACUGGAACUAUACATT against TNKS, the median seed-adjusted z-score was inactive: 0.193. In the case of UGCUGACUUUUAACCCACATT against CDK4, the median seed-adjusted z-score is reported as inactive: 0.346. In the case of GCAUGAGGUUCACCACCAATT against FIBCD1, the median seed-adjusted z-score is reported as inactive: -0.0249. In the case of GGGUUGAUCAGCUUAGUCATT against PPP1R13B, the median seed-adjusted z-score is reported as inactive: 0.0943. With ACAUAGCGACGGUAGUGAATT against STK32B the median seed-adjusted z-score was inactive: 0.683. For GCAAUGCACUGACGGAUAUTT against EFEMP1, the median seed-adjusted z-score was inactive: 0.0157.
